# Data taken from the supplement of paper PMC3334620.
# Over roughly 33,000 sequences, “E-score (-0.5 to 0.5)” has its median near -0.016; the highest 2% begin near 0.3. Some of the results follow.
# Biological target: T1, Yer184c (UniProt P39961)
# T1 sequence: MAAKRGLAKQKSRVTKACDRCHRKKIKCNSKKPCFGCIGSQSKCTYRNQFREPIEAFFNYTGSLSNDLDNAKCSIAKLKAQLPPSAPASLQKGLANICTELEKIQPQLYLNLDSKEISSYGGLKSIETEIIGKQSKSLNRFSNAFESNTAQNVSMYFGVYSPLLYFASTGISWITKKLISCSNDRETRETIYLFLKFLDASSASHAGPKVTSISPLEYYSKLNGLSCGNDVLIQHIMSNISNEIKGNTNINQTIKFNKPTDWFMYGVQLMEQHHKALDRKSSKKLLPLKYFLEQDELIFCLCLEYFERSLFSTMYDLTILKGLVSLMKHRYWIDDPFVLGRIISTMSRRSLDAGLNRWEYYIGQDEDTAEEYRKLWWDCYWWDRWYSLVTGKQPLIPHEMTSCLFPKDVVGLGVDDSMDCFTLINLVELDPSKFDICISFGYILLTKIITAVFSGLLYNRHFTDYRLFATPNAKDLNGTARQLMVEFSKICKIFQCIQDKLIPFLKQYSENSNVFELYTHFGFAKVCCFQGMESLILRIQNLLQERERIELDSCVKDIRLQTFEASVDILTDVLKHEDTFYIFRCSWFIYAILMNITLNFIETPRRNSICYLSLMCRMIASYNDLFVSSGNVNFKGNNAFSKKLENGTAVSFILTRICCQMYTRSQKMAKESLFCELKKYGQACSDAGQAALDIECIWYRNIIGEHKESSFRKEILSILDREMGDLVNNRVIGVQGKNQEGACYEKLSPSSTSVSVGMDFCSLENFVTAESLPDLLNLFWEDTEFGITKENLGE
# Test: PBM E-score (8-mer binding enrichment) (E-score (-0.5 to 0.5)); higher = stronger / more preferred TF binding
# Conditions: protein concentration: 100 nM; construct: GST-full length
# Method in brief: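 Detection of bound protein used fluorescent anti-GST, with scans normalised by masliner. The proteins were GST-tagged yeast transcription factors applied at about 100-200 nM to universal all-10-mer Agilent arrays made double-stranded by primer extension. Each ungapped eight-base word, pooled with its reverse complement, was scored with an E-score from the Universal PBM Analysis Suite.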
row,Sequence,PBM E-score
1,ACGCTCCG,-0.0533
2,GATCTTAA,0.0973
3,GCACGCGC,-0.141
4,ACGAGATC,-0.0526
5,CATCTCAG,-0.0799
6,CATGCAAA,0.0269
7,ACGACACC,-0.116
8,CAGCTGCG,-0.0751
9,ACCGTAGA,0.0305
10,CTATCGAA,-0.0803
11,AACCACCG,0.0415
12,ACGCGGAA,0.235
13,GTACTTCA,0.17
14,AGCACTCA,-0.0613
15,GACATTTA,-0.141
16,CATCATCA,0.103
17,AAGGGCGG,-0.189
18,CGTACACG,-0.13
19,GGCCAAAA,0.12
20,AGATGCGG,0.173
21,CATAACAC,0.0203
22,CACCATAG,-0.188
23,CCAACCTA,-0.053
24,CGACGAAA,0.134
25,CGGTCTGC,0.102

row,Sequence,PBM E-score
1,AATTCCAT,0.0965
2,ATTGTCCC,-0.0916
3,GATAACCC,-0.0872
4,GACTTGGA,-0.218
5,CGTTGGAC,-0.266
6,ACGGTGGC,-0.188
7,AAAGAAGA,0.0715
8,CCGGTATC,0.118
9,AACGCAGG,-0.11
10,ACCCGGTG,-0.0966
11,CAAATGGC,-0.0869
12,ACGATGAA,0.0109
13,AAAACGCA,0.0774
14,ACATTTGC,-0.0277
15,ACAGAATG,0.0519
16,ACAACCCG,0.0761
17,GGCCGCTA,0.00054
18,ATAGTATC,0.232
19,AATGGACC,0.124
20,AGCAAGTA,0.0211
21,ACCTGATG,-0.132
22,CTGAGGAA,-0.105
23,CTGCTATC,0.109
24,GGTCTTGA,-0.0168
25,AGGGTTAA,-0.0712

row,Sequence,PBM E-score
1,AATTCGGG,0.103
2,AAAGCCAG,-0.123
3,TGACTTAA,-0.0415
4,ACACAAGC,0.0554
5,ACACTACT,0.0784
6,CGAATCCC,0.154
7,AAATTCAA,0.0286
8,CATCCTAA,0.102
9,CATGACAA,0.02
10,GAGAATAC,0.233
11,CCGCATGA,0.0346
12,AAGCCGCG,0.21
13,CCCCGTCC,-0.328
14,CAGCCAGG,-0.155
15,CCTCTAGC,-0.306
16,ACGCCATA,-0.0867
17,CTTTGTAC,-0.0256
18,ATACCCAT,-0.0126
19,ACTGCCAG,0.014
20,GGTCTTAA,-0.104
21,AACACGTG,0.032
22,CTAGGCCA,-0.25
23,TCTTGAAA,0.254
24,AGAGAAAC,0.118
25,CCAATGCA,-0.119

row,Sequence,PBM E-score
1,GTAAACGA,0.0565
2,GCGAGAAA,-0.0014
3,AACCGGCC,0.318
4,GTGACTGA,0.0207
5,AGAACCCC,-0.192
6,TAACGTCA,0.087
7,CTGGGGCA,-0.335
8,AAGGCGCA,0.00578
9,CCACCTCG,-0.196
10,AAAAGTAA,0.207
11,ACTGCCTA,-0.179
12,CGATAGCC,-0.00107
13,CCGAAAGG,0.166
14,CACGACGG,0.0919
15,ACATCCAG,-0.12
16,AGGTGAAT,0.0437
17,AACTTCAT,0.072
18,GGGATTCA,-0.0361
19,TGTATGAA,0.0892
20,CCTGTTCG,0.0266
21,CTCGTATA,-0.14
22,GAGGGGCA,-0.314
23,GGAAGGTA,-0.0117
24,GAGTAACC,0.14
25,CAATGAGG,-0.267

# Reformatted with bars between the fields: part of the list above
row | Sequence | PBM E-score
15 | GACATTTA | -0.141
16 | CATCATCA | 0.103
17 | AAGGGCGG | -0.189
18 | CGTACACG | -0.13
19 | GGCCAAAA | 0.12

# Going on with the list.

row,Sequence,PBM E-score
1,AGTGCTAT,-0.299
2,CAATAGGC,-0.067
3,CTGTATGC,-0.0183
4,GAAAGATC,-0.0718
5,GGGGGGAA,-0.322
6,AGCCCCCG,-0.236
7,ACAAGATA,0.0427
8,CGCCAACG,-0.0725
9,GGACGGAA,0.0833
10,GCAGCGAC,-0.128
11,GGTTGCCA,0.0176
12,ATGACTAC,-0.234
13,CTAAGCGA,-0.0513
14,GCGCAGCA,-0.243
15,GCTCCTAC,-0.0782
16,CCAGTAAG,-0.0131
17,CATGTCGC,-0.196
18,AGCTAGGC,-0.177
19,ACGTCCCA,-0.316
20,AGGGTAGA,-0.319
21,ACTGCGAA,-0.214
22,GGTACGGA,0.114
23,ACGCTTTG,-0.0397
24,GCTATCCC,-0.16
25,AAGCAAAT,-0.0534

# Taken from above.
# In PBM E-score, CTCGTATA has -0.14
# In PBM E-score, CATGTCGC has -0.196

# (further entries)

row,Sequence,PBM E-score
1,AGGACCAG,-0.205
2,ATCACGAG,-0.208
3,CAGCCTAG,-0.0522
4,AGCGTAAG,-0.135
5,ATTGAACG,0.129
6,ATCGTTGC,-0.111
7,CTGGTAAA,-0.0435
8,ACTGGCGC,-0.00584
9,CCCTTCTA,-0.368
10,GGCACAGA,0.0481
11,AGCCGCCT,-0.0288
12,CGCGGACG,0.0226
13,ACTCTGAT,0.0231
14,ACATTCCG,0.15
15,GACGGCGA,-0.034
16,AACGAAGT,-0.0531
17,AAGCGAAA,-0.0557
18,ACCGTGGC,-0.148
19,ATGATGAC,-0.0685
20,AATCAAAG,0.113
21,AACACATG,-0.0495
22,CTCAGCAA,0.147
23,CAGGGCTA,-0.266
24,AGTCTATA,0.00985
25,AATTAAAG,0.135

row,Sequence,PBM E-score
1,CCACTGTC,-0.209
2,AGTTAAAG,0.0577
3,CGCTTCTA,-0.0336
4,TGCTAGCA,0.101
5,GCACACTA,-0.00438
6,CCCGAAGG,-0.119
7,GCGTTTAA,0.0121
8,CCGCCTTC,-0.102
9,AAGTGCGA,-0.174
10,CCAGGAAA,0.1
11,AGAACGCG,0.0697
12,CGCGCGAA,0.115
13,ACCATCTG,-0.319
14,CCTTCCTA,-0.339
15,AATATGGA,-0.0254
16,CACCCCGC,0.0453
17,ATACAGCC,-0.0921
18,ACGCACCT,-0.157
19,CTTGTGAC,-0.0813
20,CCATACCA,-0.145
21,ATGGACCG,0.0524
22,ATTGAGGC,0.0358
23,CATGGTTC,0.128
24,AGCTCAGA,-0.113
25,CAGGTTCC,-0.0812

row,Sequence,PBM E-score
1,GGTCTTAC,-0.0573
2,ACTTGGCC,-0.133
3,CGCCTTCA,-0.266
4,AACTGGAA,-0.0554
5,CCGCTTGC,0.00247
6,CATCAATC,-0.0552
7,AGTGTGTG,-0.0372
8,GAGGAACC,0.088
9,CGGGCAGA,0.17
10,CACTCAAA,0.00698
11,GAACAACA,0.163
12,AGAAGACG,0.149
13,CAGTGCGG,0.115
14,CTTTCTAC,-0.0164
15,CTAAACTC,-0.0375
16,TCATTACA,0.118
17,ATTACATA,0.0972
18,AGATTACT,0.059
19,GCGGTGTA,0.00944
20,AGATACCT,-0.128
21,CTAGAAAG,-0.0631
22,ATATCAGC,-0.163
23,GGGCAATA,-0.0856
24,TGAATGAA,0.0647
25,CGACTTTA,0.0976

row,Sequence,PBM E-score
1,AAAGACGG,0.11
2,AACGTGTA,-0.102
3,ACGGAACT,0.197
4,CTGTAATC,-0.0408
5,AGAGATCA,-0.125
6,ATCGAAAT,-0.0691
7,CAAGTTCG,-0.0965
8,ATCGACTA,-0.0998
9,TATCAGCA,0.0986
10,CAAGATGA,-0.182
11,ACCCAAGG,-0.162
12,TAACGGGA,0.0886
13,CAAGATAA,0.068
14,ATATGTAA,0.104
15,ATAATGGG,0.00169
16,CGGACGAC,0.23
17,ACTCCGTA,-0.0281
18,AGACCAGC,-0.256
19,CTTATCGC,-0.00943
